This note sets out measurements from PMC4546648.

The target in one assay is T1, S-tagged PLCγ1 R586L (UniProt P19174).
T1 sequence: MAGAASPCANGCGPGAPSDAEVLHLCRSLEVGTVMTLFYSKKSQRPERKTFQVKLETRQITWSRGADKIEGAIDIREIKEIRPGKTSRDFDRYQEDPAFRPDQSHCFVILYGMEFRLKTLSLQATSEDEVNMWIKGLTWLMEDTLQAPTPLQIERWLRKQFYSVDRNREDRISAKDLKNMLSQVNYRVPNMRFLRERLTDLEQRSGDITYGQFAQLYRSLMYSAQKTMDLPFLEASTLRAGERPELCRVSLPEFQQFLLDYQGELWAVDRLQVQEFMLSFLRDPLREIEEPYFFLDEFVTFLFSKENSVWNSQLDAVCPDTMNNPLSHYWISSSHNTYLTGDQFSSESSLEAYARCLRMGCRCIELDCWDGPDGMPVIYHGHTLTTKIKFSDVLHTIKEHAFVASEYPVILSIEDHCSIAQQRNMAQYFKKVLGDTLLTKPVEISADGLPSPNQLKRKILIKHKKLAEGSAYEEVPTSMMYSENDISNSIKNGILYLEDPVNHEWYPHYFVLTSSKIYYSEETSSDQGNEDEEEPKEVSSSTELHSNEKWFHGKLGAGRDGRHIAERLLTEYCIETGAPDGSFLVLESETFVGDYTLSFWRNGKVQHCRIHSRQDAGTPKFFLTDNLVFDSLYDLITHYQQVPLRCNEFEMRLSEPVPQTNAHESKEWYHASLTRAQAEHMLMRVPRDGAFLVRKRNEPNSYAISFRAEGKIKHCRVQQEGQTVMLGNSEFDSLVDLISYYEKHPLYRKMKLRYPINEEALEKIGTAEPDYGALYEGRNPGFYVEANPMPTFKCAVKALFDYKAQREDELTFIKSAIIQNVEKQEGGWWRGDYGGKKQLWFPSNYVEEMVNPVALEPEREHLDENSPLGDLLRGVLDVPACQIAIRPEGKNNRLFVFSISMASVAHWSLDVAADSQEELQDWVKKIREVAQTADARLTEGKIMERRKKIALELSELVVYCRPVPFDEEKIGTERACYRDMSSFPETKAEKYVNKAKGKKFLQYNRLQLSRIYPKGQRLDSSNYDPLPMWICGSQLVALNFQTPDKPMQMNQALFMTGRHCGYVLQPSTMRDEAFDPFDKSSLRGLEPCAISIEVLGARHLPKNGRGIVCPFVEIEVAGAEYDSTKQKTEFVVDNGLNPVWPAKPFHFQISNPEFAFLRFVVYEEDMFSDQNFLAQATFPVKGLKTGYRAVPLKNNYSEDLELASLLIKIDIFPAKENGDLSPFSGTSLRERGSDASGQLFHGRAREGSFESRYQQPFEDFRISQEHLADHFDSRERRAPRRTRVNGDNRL
The assay can be described thus: co-IP; HEK293T co-transfected; lysed in IP buffer (150 mM NaCl, 25 mM tris HCl pH 7.6, 1 mM EDTA, 1% glycerol, 0.2% NP-40); S-tagged construct captured on S protein agarose beads overnight at 4°C; western blot. In general terms: Immunoblotting shows a protein as a band on a membrane.

The target in another assay is T2, S-tagged PLCγ1 R694L (UniProt P19174).
T2 sequence: T1 sequence with L586R, R694L
The assay is described as above.

Changes are numbered by the printed parent chain. These are yes or no findings as the source states them, for the method shown. In cells and extracts the contact can be indirect. A result given as binding can be weak or reduced; the word gives no strength. Sequences can lack the tags named with a protein.

As for K15M wt, the binding result with S-tagged PLCγ1 R586L and with S-tagged PLCγ1 R694L was “binds” each time.
